Results reported in patent US20070054846A1, “Bcl-w structure and uses therefor” (priority 2002, published 2007).
No constants are given. Whether binding was seen depends on the method and setting. In cells and extracts the contact can be indirect. Some results given as binding are weak or reduced against the parent protein; the word gives no strength.

By UniProt entry, the sequences of proteins in these tests, tags left out. Where a name states a change or a piece, a line headed by the entry shows the natural chain unless it says otherwise. Chains listed by the source or under a name are the forms on record and can include a tag or linker.
EE-BimL (O54918, form named): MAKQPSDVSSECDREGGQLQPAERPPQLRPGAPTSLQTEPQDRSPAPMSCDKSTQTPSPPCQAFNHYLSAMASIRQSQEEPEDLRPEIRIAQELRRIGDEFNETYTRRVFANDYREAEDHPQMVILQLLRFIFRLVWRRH
BimLΔC27 (O54918, form named): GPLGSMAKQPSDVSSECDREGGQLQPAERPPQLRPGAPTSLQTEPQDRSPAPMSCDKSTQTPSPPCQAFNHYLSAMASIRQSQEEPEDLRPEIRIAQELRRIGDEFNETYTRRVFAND
UniProt Q07817: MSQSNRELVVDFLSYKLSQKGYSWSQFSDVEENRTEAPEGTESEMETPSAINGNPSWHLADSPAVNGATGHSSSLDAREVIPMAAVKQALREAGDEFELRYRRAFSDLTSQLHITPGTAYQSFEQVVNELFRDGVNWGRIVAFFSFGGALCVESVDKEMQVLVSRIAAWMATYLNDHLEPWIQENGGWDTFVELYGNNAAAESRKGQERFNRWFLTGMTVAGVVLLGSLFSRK

What was measured:
[1] = target: EE-BimL (UniProt O54918); test: co-immunoprecipitation from cell extracts
[2] = target: EE-BimL (UniProt O54918); test: co-immunoprecipitation from 35S-labelled 293T lysates with anti-FLAG (α-F), anti-EE (α-E) and control anti-HA (α-H) [upper left gel]
[3] = target: BimLΔC27 (mouse) (UniProt O54918); test: GST pull-down, stained SDS-PAGE
[4] = target: BimLΔC27 (mouse) (UniProt O54918); test: GST pull-down

| Substance | binding [1] | binding [2] | binding [3] | binding [4] |
| --- | --- | --- | --- | --- |
| FLAG Bcl-xL (full-length) (from UniProt Q07817 1-233) | binds | binds | – | – |
| GST-Bcl-xL (full-length) (from UniProt Q07817 1-233) | – | – | binds | binds |
